Data source: PubChem BioAssay AID1508597 (Cure First, 2020)
The deposit covers about 2,100 reagents; below is a part drawn at random. 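Calls flag viability under 80% in either arm, not effects specific to rucaparib; the reference for percent is not stated.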 The record does not give: the 100% reference.

Test: 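Survival screen with siRNA in ovarian cancer cells derived from patients, with or without rucaparib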 (primary screen)
Cell system: human ovarian carcinoma lines grown from tumours: OCI-P5x (papillary serous) and OCI-C5x (clear cell)
Reagents: siRNA pool against human genes, 1.25 pmol siRNA per well
Duration: 72 h or 96 h, depending on the cell culture
Challenge: rucaparib 20 µM (about IC30) or vehicle, present until read-out
Measured: 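ATP luminescence measured at 72 or 96 h according to the culture, then normalised and expressed as percent viability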
Direction: viability, normalised: higher = more viable cells remaining
Call rule: 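a well counts as a hit if its normalised viability is under 80 percent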
Calls: active = viability under 80%; inactive = viability 80% or more

gene knocked down | rucaparib or vehicle | cell line | technical replicate | viability, normalised (%) | Outcome
ARRB1 (GeneID 408) | Rucaparib | OCI-C5x (clear cell) | 1 | 65.3 | active
ARRB1 (GeneID 408) | Rucaparib | OCI-C5x (clear cell) | 2 | 40.3 | active
ARRB1 (GeneID 408) | Rucaparib | OCI-C5x (clear cell) | 3 | 55.8 | active
ARRB1 (GeneID 408) | Rucaparib | OCI-P5x (serous) | 1 | 90.1 | inactive
ARRB1 (GeneID 408) | Rucaparib | OCI-P5x (serous) | 2 | 92.1 | inactive
ARRB1 (GeneID 408) | Rucaparib | OCI-P5x (serous) | 3 | 101 | inactive
ARRB1 (GeneID 408) | Vehicle | OCI-C5x (clear cell) | 1 | 49.4 | active
ARRB1 (GeneID 408) | Vehicle | OCI-C5x (clear cell) | 2 | 48.4 | active
ARRB1 (GeneID 408) | Vehicle | OCI-C5x (clear cell) | 3 | 68.9 | active
ARRB1 (GeneID 408) | Vehicle | OCI-P5x (serous) | 1 | 75.6 | active
ARRB1 (GeneID 408) | Vehicle | OCI-P5x (serous) | 2 | 81.2 | inactive
ARRB1 (GeneID 408) | Vehicle | OCI-P5x (serous) | 3 | 81.1 | inactive
RFC4 (GeneID 5984) | Rucaparib | OCI-C5x (clear cell) | 1 | 47.5 | active
RFC4 (GeneID 5984) | Rucaparib | OCI-C5x (clear cell) | 2 | 57.8 | active
RFC4 (GeneID 5984) | Rucaparib | OCI-C5x (clear cell) | 3 | 52.2 | active
RFC4 (GeneID 5984) | Rucaparib | OCI-P5x (serous) | 1 | 69.8 | active
RFC4 (GeneID 5984) | Rucaparib | OCI-P5x (serous) | 2 | 75.4 | active
RFC4 (GeneID 5984) | Rucaparib | OCI-P5x (serous) | 3 | 61 | active
RFC4 (GeneID 5984) | Vehicle | OCI-C5x (clear cell) | 1 | 40.1 | active
RFC4 (GeneID 5984) | Vehicle | OCI-C5x (clear cell) | 2 | 49.1 | active
RFC4 (GeneID 5984) | Vehicle | OCI-C5x (clear cell) | 3 | 45.7 | active
RFC4 (GeneID 5984) | Vehicle | OCI-P5x (serous) | 1 | 79.5 | active
RFC4 (GeneID 5984) | Vehicle | OCI-P5x (serous) | 2 | 66.5 | active
RFC4 (GeneID 5984) | Vehicle | OCI-P5x (serous) | 3 | 57.5 | active
GEMIN4 (GeneID 50628) | Rucaparib | OCI-C5x (clear cell) | 1 | 29.4 | active
GEMIN4 (GeneID 50628) | Rucaparib | OCI-C5x (clear cell) | 2 | 33 | active
GEMIN4 (GeneID 50628) | Rucaparib | OCI-C5x (clear cell) | 3 | 45.4 | active
GEMIN4 (GeneID 50628) | Rucaparib | OCI-P5x (serous) | 1 | 82.6 | inactive
GEMIN4 (GeneID 50628) | Rucaparib | OCI-P5x (serous) | 2 | 73 | active
GEMIN4 (GeneID 50628) | Rucaparib | OCI-P5x (serous) | 3 | 80.8 | inactive
GEMIN4 (GeneID 50628) | Vehicle | OCI-C5x (clear cell) | 1 | 33.3 | active
GEMIN4 (GeneID 50628) | Vehicle | OCI-C5x (clear cell) | 2 | 24.9 | active
GEMIN4 (GeneID 50628) | Vehicle | OCI-C5x (clear cell) | 3 | 38 | active
GEMIN4 (GeneID 50628) | Vehicle | OCI-P5x (serous) | 1 | 67.3 | active
GEMIN4 (GeneID 50628) | Vehicle | OCI-P5x (serous) | 2 | 78.5 | active
GEMIN4 (GeneID 50628) | Vehicle | OCI-P5x (serous) | 3 | 74.9 | active
EPHA8 (GeneID 2046) | Rucaparib | OCI-C5x (clear cell) | 1 | 69.2 | active
EPHA8 (GeneID 2046) | Rucaparib | OCI-C5x (clear cell) | 2 | 62.6 | active
EPHA8 (GeneID 2046) | Rucaparib | OCI-C5x (clear cell) | 3 | 50.9 | active
EPHA8 (GeneID 2046) | Rucaparib | OCI-P5x (serous) | 1 | 82.2 | inactive
EPHA8 (GeneID 2046) | Rucaparib | OCI-P5x (serous) | 2 | 73.7 | active
EPHA8 (GeneID 2046) | Rucaparib | OCI-P5x (serous) | 3 | 65.5 | active
EPHA8 (GeneID 2046) | Vehicle | OCI-C5x (clear cell) | 1 | 102 | inactive
EPHA8 (GeneID 2046) | Vehicle | OCI-C5x (clear cell) | 2 | 75.5 | active
EPHA8 (GeneID 2046) | Vehicle | OCI-C5x (clear cell) | 3 | 49.5 | active
EPHA8 (GeneID 2046) | Vehicle | OCI-P5x (serous) | 1 | 67 | active
EPHA8 (GeneID 2046) | Vehicle | OCI-P5x (serous) | 2 | 64.3 | active
EPHA8 (GeneID 2046) | Vehicle | OCI-P5x (serous) | 3 | 70.7 | active
HDGF (GeneID 3068) | Rucaparib | OCI-C5x (clear cell) | 1 | 80.7 | inactive
HDGF (GeneID 3068) | Rucaparib | OCI-C5x (clear cell) | 2 | 27.2 | active
HDGF (GeneID 3068) | Rucaparib | OCI-C5x (clear cell) | 3 | 43.9 | active
HDGF (GeneID 3068) | Rucaparib | OCI-P5x (serous) | 1 | 97.1 | inactive
HDGF (GeneID 3068) | Rucaparib | OCI-P5x (serous) | 2 | 87.4 | inactive
HDGF (GeneID 3068) | Rucaparib | OCI-P5x (serous) | 3 | 77.9 | active
HDGF (GeneID 3068) | Vehicle | OCI-C5x (clear cell) | 1 | 58.8 | active
HDGF (GeneID 3068) | Vehicle | OCI-C5x (clear cell) | 2 | 53.7 | active
HDGF (GeneID 3068) | Vehicle | OCI-C5x (clear cell) | 3 | 55.9 | active
HDGF (GeneID 3068) | Vehicle | OCI-P5x (serous) | 1 | 69.8 | active
HDGF (GeneID 3068) | Vehicle | OCI-P5x (serous) | 2 | 84 | inactive
HDGF (GeneID 3068) | Vehicle | OCI-P5x (serous) | 3 | 67.2 | active
